{"source": "patent US9783585B2", "about": "“Compositions and methods for increasing the expression and signalling of proteins on cell surfaces” (JOHNS HOPKINS UNIVERSITY, priority 2013, dated 2017)", "molecules": {"B1": {"name": "Olfr78: murine olfactory receptor, Flag-tagged construct with or without Rho and Lucy tags (protein, UniProt Q8VBV9 1-320, looked up)", "Olfactory receptor 51E2": "MSSCNFTHATFLLIGIPGLEEAHFWFGFPLLSMYAVALFGNCIVVFIVRTERSLHAPMYLFLCMLAAIDLALSTSTMPKILALFWFDSREITFDACLAQMFFIHTLSAIESTILLAMAFDRYVAICHPLRHAAVLNNTVTVQIGMVALVRGSLFFFPLPLLIKRLAFCHSNVLSHSYCVHQDVMKLAYTDTLPNVVYGLTAILLVMGVDVMFISLSYFLIIRTVLQLPSKSERAKAFGTCVSHISVVLAFYVPLIGLSVVHRFGNSLDPIVHVLMGDVYLLLPPVINPIIYGAKTKQIRTRVLAMFKISCDKDIEAGGNT", "modifications": "Flag tag; optional Rho and Lucy tags"}, "B2": {"name": "hOR52B2: human homologue of Olfr691, Flag-tagged construct with or without Rho and Lucy tags (protein, UniProt Q96RD2 1-323, looked up)", "Olfactory receptor 52B2": "MSHTNVTIFHPAVFVLPGIPGLEAYHIWLSIPLCLIYITAVLGNSILIVVIVMERNLHVPMYFFLSMLAVMDILLSTTTVPKALAIFWLQAHNIAFDACVTQGFFVHMMFVGESAILLAMAFDRFVAICAPLRYTTVLTWPVVGRIALAVITRSFCIIFPVIFLLKRLPFCLTNIVPHSYCEHIGVARLACADITVNIWYGFSVPIVMVILDVILIAVSYSLILRAVFRLPSQDARHKALSTCGSHLCVILMFYVPSFFTLLTHHFGRNIPQHVHILLANLYVAVPPMLNPIVYGVKTKQIREGVAHRFFDIKTWCCTSPLGS", "modifications": "Flag tag; optional Rho and Lucy tags"}, "B3": {"name": "hOR51E2: human olfactory receptor, Flag-tagged construct with or without Rho and Lucy tags (protein, UniProt Q9H255 1-320, looked up)", "Olfactory receptor 51E2": "MSSCNFTHATFVLIGIPGLEKAHFWVGFPLLSMYVVAMFGNCIVVFIVRTERSLHAPMYLFLCMLAAIDLALSTSTMPKILALFWFDSREISFEACLTQMFFIHALSAIESTILLAMAFDRYVAICHPLRHAAVLNNTVTAQIGIVAVVRGSLFFFPLPLLIKRLAFCHSNVLSHSYCVHQDVMKLAYADTLPNVVYGLTAILLVMGVDVMFISLSYFLIIRTVLQLPSKSERAKAFGTCVSHIGVVLAFYVPLIGLSVVHRFGNSLHPIVRVVMGDIYLLLPPVINPIIYGAKTKQIRTRVLAMFKISCDKDLQAVGGK", "modifications": "Flag tag; optional Rho and Lucy tags"}}}
{"test_system": "HEK293T cells", "experiment": "Surface immunofluorescence of Flag-tagged olfactory receptors (OR trafficking)", "format": "cell-based", "parameters": "key: −: No detectable OR surface expression; +: OR surface expression detected in the majority of fields of view (>90% of all fields of view); *: OR surface expression detected in a minority of fields of view (<50% of all fields of view)", "details": "Lucy-OR construct, chaperones: None"}
{"molecule": "B1", "OR surface expression": "+ (OR surface expression detected in the majority of fields of view (>90% of all fields of view))"}
{"molecule": "B2", "OR surface expression": "+ (OR surface expression detected in the majority of fields of view (>90% of all fields of view))"}
{"molecule": "B3", "OR surface expression": "+ (OR surface expression detected in the majority of fields of view (>90% of all fields of view))"}
{"test_system": "HEK293T cells", "experiment": "Surface immunofluorescence of Flag-tagged olfactory receptors (OR trafficking)", "format": "cell-based", "parameters": "key: −: No detectable OR surface expression; +: OR surface expression detected in the majority of fields of view (>90% of all fields of view); *: OR surface expression detected in a minority of fields of view (<50% of all fields of view)", "details": "Lucy-OR construct, chaperones: RTP1S, Ric8b, Gαolf"}
{"molecule": "B1", "OR surface expression": "+ (OR surface expression detected in the majority of fields of view (>90% of all fields of view))"}
{"molecule": "B2", "OR surface expression": "+ (OR surface expression detected in the majority of fields of view (>90% of all fields of view))"}
{"molecule": "B3", "OR surface expression": "+ (OR surface expression detected in the majority of fields of view (>90% of all fields of view))"}
{"test_system": "HEK293T cells", "experiment": "Surface immunofluorescence of Flag-tagged olfactory receptors (OR trafficking)", "format": "cell-based", "parameters": "key: −: No detectable OR surface expression; +: OR surface expression detected in the majority of fields of view (>90% of all fields of view); *: OR surface expression detected in a minority of fields of view (<50% of all fields of view)", "details": "Lucy-Rho-OR construct, chaperones: None"}
{"molecule": "B1", "OR surface expression": "+ (OR surface expression detected in the majority of fields of view (>90% of all fields of view))"}
{"molecule": "B2", "OR surface expression": "+ (OR surface expression detected in the majority of fields of view (>90% of all fields of view))"}
{"molecule": "B3", "OR surface expression": "+ (OR surface expression detected in the majority of fields of view (>90% of all fields of view))"}
{"test_system": "HEK293T cells", "experiment": "Surface immunofluorescence of Flag-tagged olfactory receptors (OR trafficking)", "format": "cell-based", "parameters": "key: −: No detectable OR surface expression; +: OR surface expression detected in the majority of fields of view (>90% of all fields of view); *: OR surface expression detected in a minority of fields of view (<50% of all fields of view)", "details": "Lucy-Rho-OR construct, chaperones: RTP1S, Ric8b, Gαolf"}
{"molecule": "B1", "OR surface expression": "+ (OR surface expression detected in the majority of fields of view (>90% of all fields of view))"}
{"molecule": "B2", "OR surface expression": "+ (OR surface expression detected in the majority of fields of view (>90% of all fields of view))"}
{"molecule": "B3", "OR surface expression": "+ (OR surface expression detected in the majority of fields of view (>90% of all fields of view))"}
{"test_system": "HEK293T cells", "experiment": "Surface immunofluorescence of Flag-tagged olfactory receptors (OR trafficking)", "format": "cell-based", "parameters": "key: −: No detectable OR surface expression; +: OR surface expression detected in the majority of fields of view (>90% of all fields of view); *: OR surface expression detected in a minority of fields of view (<50% of all fields of view)", "details": "OR construct (Flag tag only), chaperones: RTP1S, Ric8b, Gαolf"}
{"molecule": "B1", "OR surface expression": "+ (OR surface expression detected in the majority of fields of view (>90% of all fields of view))"}
{"molecule": "B2", "OR surface expression": "−"}
{"molecule": "B3", "OR surface expression": "+ (OR surface expression detected in the majority of fields of view (>90% of all fields of view))"}
{"test_system": "HEK293T cells", "experiment": "Surface immunofluorescence of Flag-tagged olfactory receptors (OR trafficking)", "format": "cell-based", "parameters": "key: −: No detectable OR surface expression; +: OR surface expression detected in the majority of fields of view (>90% of all fields of view); *: OR surface expression detected in a minority of fields of view (<50% of all fields of view)", "details": "OR construct (Flag tag only, no Rho or Lucy tag), chaperones: None"}
{"molecule": "B1", "OR surface expression": "+ (OR surface expression detected in the majority of fields of view (>90% of all fields of view))"}
{"molecule": "B2", "OR surface expression": "−"}
{"molecule": "B3", "OR surface expression": "+ (OR surface expression detected in the majority of fields of view (>90% of all fields of view))"}
{"test_system": "HEK293T cells", "experiment": "Surface immunofluorescence of Flag-tagged olfactory receptors (OR trafficking)", "format": "cell-based", "parameters": "key: −: No detectable OR surface expression; +: OR surface expression detected in the majority of fields of view (>90% of all fields of view); *: OR surface expression detected in a minority of fields of view (<50% of all fields of view)", "details": "Rho-OR construct, chaperones: None"}
{"molecule": "B1", "OR surface expression": "+ (OR surface expression detected in the majority of fields of view (>90% of all fields of view))"}
{"molecule": "B2", "OR surface expression": "−"}
{"molecule": "B3", "OR surface expression": "+ (OR surface expression detected in the majority of fields of view (>90% of all fields of view))"}
{"test_system": "HEK293T cells", "experiment": "Surface immunofluorescence of Flag-tagged olfactory receptors (OR trafficking)", "format": "cell-based", "parameters": "key: −: No detectable OR surface expression; +: OR surface expression detected in the majority of fields of view (>90% of all fields of view); *: OR surface expression detected in a minority of fields of view (<50% of all fields of view)", "details": "Rho-OR construct, chaperones: RTP1S, Ric8b, Gαolf"}
{"molecule": "B1", "OR surface expression": "+ (OR surface expression detected in the majority of fields of view (>90% of all fields of view))"}
{"molecule": "B2", "OR surface expression": "−"}
{"molecule": "B3", "OR surface expression": "+ (OR surface expression detected in the majority of fields of view (>90% of all fields of view))"}
